Assay results from US20100256217A1, “ANTIVIRAL INHIBITION OF CASEIN KINASE II” (The Trustees of the University of Pennsylvania, priority 2006, published 2010).
These are yes or no findings as the source states them, for the method shown. For part of these data: In cells and extracts the contact can be indirect. Some entries that bind do so weakly or less than the wild type.

Chains of the proteins cited; added tags and fusions are not shown. Residues count along the entry.
UniProt P68400: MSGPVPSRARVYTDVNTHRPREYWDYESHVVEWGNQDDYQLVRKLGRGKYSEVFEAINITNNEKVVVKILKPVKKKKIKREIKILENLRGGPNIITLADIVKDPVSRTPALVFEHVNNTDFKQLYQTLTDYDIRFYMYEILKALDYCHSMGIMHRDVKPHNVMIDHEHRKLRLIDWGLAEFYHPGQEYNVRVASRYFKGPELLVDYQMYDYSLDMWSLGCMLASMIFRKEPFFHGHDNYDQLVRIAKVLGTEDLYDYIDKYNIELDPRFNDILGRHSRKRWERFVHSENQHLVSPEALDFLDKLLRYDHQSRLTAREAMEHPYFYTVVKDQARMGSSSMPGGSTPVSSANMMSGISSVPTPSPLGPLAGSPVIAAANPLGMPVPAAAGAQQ
UniProt Q9Q6P4, residues 1-123: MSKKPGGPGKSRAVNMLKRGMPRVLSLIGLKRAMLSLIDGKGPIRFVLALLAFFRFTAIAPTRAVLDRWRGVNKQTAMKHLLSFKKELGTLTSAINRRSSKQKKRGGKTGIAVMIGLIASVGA

Experiments:
[1] = biological target: human CK2α subunit, cloned from HeLa cell cDNA (pcCK2α) (human) (UniProt P68400); experiment: co-immunoprecipitation from transfected 293T cell lysates with anti-His or anti-CK2α, then western blot; endogenous CK2α was also pulled down
[2] = biological target: human CK2α subunit, cloned from HeLa cell cDNA (pcCK2α) (human) (UniProt P68400); experiment: in vitro binding assay, 35S-labeled in vitro translated proteins, co-immunoprecipitation, autoradiography
[3] = biological target: human CK2α subunit, cloned from HeLa cell cDNA (pcCK2α) (human) (UniProt P68400); experiment: co-immunoprecipitation: 35S-labeled in vitro translated proteins, and 293-T cell lysates with western blot
[4] = biological target: human CK2α subunit, cloned from HeLa cell cDNA (pcCK2α) (human) (UniProt P68400); experiment: in vitro binding assay and co-immunoprecipitation with western blot (summary in the discussion)
[5] = biological target: human CK2α subunit, cloned from HeLa cell cDNA (pcCK2α) (human) (UniProt P68400); experiment: co-immunoprecipitation from transfected 293T cells, then western blot
[6] = biological target: recombinant WNV capsid protein with an N-terminal hexa-histidine tag, expressed in E. coli from pQE30 (West Nile virus) (UniProt Q9Q6P4); experiment: SDS-PAGE and anti-His western blot of Ni-NTA purified protein (bands at 14 kD and 33 kD)

Measured: binding

West Nile virus capsid protein with a C-terminal polyhistidine tag, encoded by pcWNV C-His (from UniProt Q9Q6P4 1-123)
not listed: [6]
binds: all other assays above

recombinant WNV capsid protein with an N-terminal hexa-histidine tag, expressed in E. coli from pQE30 (from UniProt Q9Q6P4 1-123)
binds: [6]
